# PubChem BioAssay AID1347075 (National Center for Advancing Translational Sciences (NCATS), 2019)
# Out of some 400,000 compounds screened, about 5,500 (1.4%) were called active. Inconclusive means that the source gave no clear call. Such entries were picked first, then a sample of the others. Calls come from the whole dose curve; as a rule, active = well fitted cell-killing curve with a large enough effect; inconclusive = small, poorly fitted or top-dose-only effect, or effect the other way; inactive = flat fitted curve, though single readings scatter. A potency beside an inconclusive call is a rough fit, not a confirmed value.
# Assay: qHTS assay for MDR1-selective chemotherapeutics: Primary screen using the parental adenocarcinoma cell KB-3-1; note: nearly all actives have a fitted effect of over 60% in size
# Settings: KB-3-1 viability, CellTiter-Glo ATP luminescence, 72 h; activity change, negative = cytotoxic: at 46.1 µM (top of the series)
# How it was run: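 Multi-concentration cytotoxicity screen in KB-3-1 cells grown in DMEM lacking phenol red with 10% FBS. After 72 h at 37 °C with compound, ATP-dependent luminescence was recorded.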
# % is set by controls: 0 for no effect and ±100 for the full control effect; potency is the fitted concentration of half-maximal effect.
Compound,Potency,"activity change, negative = cytotoxic"
CC(=O)NC1(C(Cl)(Cl)Cl)Oc2ccccc2O1,"inconclusive: 20.6 µM [cytotoxic, single point]",–
O=C1N=C(N2CCCC2)S/C1=C\c1cccc(Br)c1,"inconclusive: 29.1 µM [cytotoxic, single point]",–
COC(=O)c1ccc(COc2ccccc2/C=N/NS(=O)(=O)c2ccc(C)cc2)cc1,inactive,–
CCOC(=O)C1=C(Cn2cnc3ccccc32)NC(=O)NC1c1ccc(Cl)cc1 (configuration not stated),inactive,–
O=C(CCl)N(Cc1ccccc1)c1ccccc1,"inconclusive: 18.4 µM [cytotoxic, single point]",–
CN(C)CCNC(=S)Nc1cccc(Cl)c1,"inconclusive: 29.1 µM [rising, partial curve, poor fit]",–
O=C(Nc1ccc(N2CCOCC2)c(Cl)c1)c1cc(F)c(F)cc1Cl,"inconclusive: 29.1 µM [cytotoxic, single point]",–
CN1CCC(C)(C(=O)Nc2cccc3c2CCCC3)C1 (configuration not stated),–,inconclusive: -15%
CC(C)(C)c1ccc(C(=O)N2CCN(C(=O)C3CCCCC3)CC2)cc1,"inconclusive: 0.0058 µM [rising, full curve, poor fit]",–
c1ccc(-c2nc3c(ccc4ccccc43)[nH]2)nc1,"inconclusive: 29.1 µM [cytotoxic, single point]",–
Cc1nc2ccccc2n1CC(O)COc1ccc(Br)cc1 (configuration not stated),"inconclusive: 20.6 µM [cytotoxic, single point]",–
Cc1ccc(C(=O)Nc2cc3ccccc3oc2=O)cc1,active: 3.26 µM,–
Cc1ccc2cc(CN(CC3CCCO3)S(=O)(=O)c3c(C)ccc4nsnc34)c(=O)[nH]c2c1 (configuration not stated),inactive,–
Cc1csc2sc(-c3ccnc(SCC(=O)NCc4ccccc4)n3)c(C)c12,"inconclusive: 1.16 µM [cytotoxic, full curve, poor fit]",–
O=C(Nc1ccccc1C(=O)NCc1cccnc1)c1ccc(Cl)cc1Cl,"inconclusive: 16.4 µM [cytotoxic, partial curve]",–
CCc1ccc2[nH]c(=O)c(CN(Cc3ccccc3OC)Cc3nnnn3Cc3ccco3)cc2c1,active: 20.6 µM,–
N#C/C(=C\c1cccn1-c1ccccc1)C(=O)NC1CCCCC1,active: 5.8 µM,–
CCn1ccc2c(OCC(=O)Nc3ccc(C)c(Cl)c3)cccc2c1=O,inactive,–
CCN(CC)c1cc(C)c2cc(NC(=O)c3cc(OC)cc(OC)c3)ccc2n1,inactive,–
CCOC(=O)N1CCN(C(=O)c2ccc3nc(C)sc3c2)CC1,"inconclusive: 18.4 µM [rising, partial curve]",–
O=C(/C=C/c1ccc(Cl)cc1Cl)Nc1ccc(CN2CCOCC2)cc1,"inconclusive: 23.1 µM [cytotoxic, single point]",–
Cc1ccc2[nH]c(O)c(N=Nc3nc4ccccc4s3)c2c1,"inconclusive: 23.1 µM [cytotoxic, single point]",–
Clc1ccc(COn2c(-c3ccccc3)nc3ccccc32)cc1,"inconclusive: 2.91 µM [cytotoxic, full curve, poor fit]",–

Compound,Potency,"activity change, negative = cytotoxic"
CCOc1ccc(NC(=S)Nc2ccccc2C2(C)CC2)cc1,"inconclusive: 6.51 µM [cytotoxic, partial curve]",–
Cc1ccc(-n2nc3c(N4CCC(C(=O)NCc5ccccc5C)CC4)nnc(C)c3c2C)cc1,"inconclusive: 4.11 µM [cytotoxic, full curve, poor fit]",–
Cc1ccc(Cl)cc1N1CCN(C(=O)CCS(=O)(=O)c2ccc3c(c2)NC(=O)CO3)CC1,"inconclusive: 4.61 µM [cytotoxic, full curve, poor fit]",–
COc1ccc(CNC(=O)N2[C@H]3CC[C@@H]2C=C(c2ccc(F)cc2OCc2ccccc2)C3)cc1OC,inactive,–
CC(=O)Nc1ccc(NC(=O)c2cc(CN3CCCC3)on2)cc1,inactive,–
CC1(C)CC(NC(=O)c2sc3cc(Cl)ccc3c2Cl)CC(C)(C)N1,"inconclusive: 18.4 µM [cytotoxic, single point]",–
CC1CCC/C=C/C(=O)c2c(O)cc(O)cc2CC(=O)O1 (configuration not stated),active: 10.3 µM,–
CCCN(CCC)S(=O)(=O)c1ccc(C(=O)Nc2nnc(-c3cc(OC)cc(OC)c3)o2)cc1,"inconclusive: 2.59 µM [cytotoxic, full curve]",–
CCCCN(CC)CCNC(=O)c1cc2cc3ccc(Cl)cc3nc2o1,inactive,–
COC(=O)C1=C(COc2ccc(C=O)cc2OC)NC(=O)NC1c1cc(C)ccc1C (configuration not stated),"inconclusive: 23.1 µM [rising, single point]",–
CC(=O)Nc1ccc(S(=O)(=O)N2CCN(c3nc(NC4CCCC4)c4ccccc4n3)CC2)cc1,"inconclusive: 29.1 µM [cytotoxic, single point]",–
Cc1ccc2cc(CN(CCN3CCOCC3)Cc3nnnn3Cc3ccco3)c(=O)[nH]c2c1C,inactive,–
COc1ccc(-n2c(NC(=O)c3ccco3)c(C#N)c3nc4ccccc4nc32)cc1,"inconclusive: 18.4 µM [cytotoxic, single point]",–
O=C(CSc1nc(-c2ccco2)cc(C(F)(F)F)n1)Nc1ccc(C(=O)N2CCCCC2)cc1,inactive,–
O=C(NCc1cc2ccccc2[nH]1)C1CCC(=O)N(CC2CCCCC2)C1 (configuration not stated),inactive,–
Cc1ccc(C)c(N2CCN(C(=O)CCS(=O)(=O)c3ccc4c(c3)oc(=O)n4C)CC2)c1,"inconclusive: 16.4 µM [cytotoxic, single point]",–
Cc1ccc(C(=O)N2CCN(Cc3ccc4c(c3)OCO4)CC2)c(Cl)c1,"inconclusive: 14.6 µM [cytotoxic, single point]",–
CCN(CC)C(=O)c1sc2c(c1C)c(=O)n(CCc1ccccc1)c(=O)n2Cc1ccc(C)cc1,"inconclusive: 29.1 µM [cytotoxic, single point]",–
COc1ccc(CCNC(=O)Cc2ccc(OCc3ccccc3)c(OC)c2[N+](=O)[O-])cc1OCc1ccccc1,"inconclusive: 20.6 µM [cytotoxic, single point]",–
CCCCC(=O)N(C)c1c(C)nc2ccc(C(=O)N(CC)CCN(C)C)cn12,inactive,–
O=C(O)c1ccc(-c2ccc(/C=C3\NC(=O)N(Cc4ccc(Cl)cc4)C3=O)o2)cc1Cl,"inconclusive: 29.1 µM [cytotoxic, single point]",–
COc1ccc(/C=C2\C(=O)NCC(=O)N2C)cc1,inactive,–
COc1cc(C(C[N+](=O)[O-])c2c(C)[nH]c3ccccc23)cc(OC)c1OC (configuration not stated),"inconclusive: 20.6 µM [cytotoxic, single point]",–

# 4 entries from above, with tabs.
Compound	Potency	activity change, negative = cytotoxic
Cc1ccc(Cl)cc1N1CCN(C(=O)CCS(=O)(=O)c2ccc3c(c2)NC(=O)CO3)CC1	inconclusive: 4.61 µM [cytotoxic, full curve, poor fit]	–
COc1ccc(CNC(=O)N2[C@H]3CC[C@@H]2C=C(c2ccc(F)cc2OCc2ccccc2)C3)cc1OC	inactive	–
CC(=O)Nc1ccc(NC(=O)c2cc(CN3CCCC3)on2)cc1	inactive	–
CC1(C)CC(NC(=O)c2sc3cc(Cl)ccc3c2Cl)CC(C)(C)N1	inconclusive: 18.4 µM [cytotoxic, single point]	–

# Remaining list, next part:

Compound,Potency,"activity change, negative = cytotoxic"
Cc1cc(C)n(-c2c(C)[nH]c3ccccc23)n1,"inconclusive: 29.1 µM [cytotoxic, single point]",–
Cc1ccc(C)c(-c2nnc(NC(=O)COc3ccccc3)o2)c1,inactive,–
COCCCN=C1NN=C(c2cc(C)n(Cc3ccccc3Cl)c2C)CS1,active: 1.3 µM,–
CCn1ncc(/C=N\NC(=O)c2ccc3c(c2)c(C)c(C)n3Cc2ccccc2)c1C,"inconclusive: 20.6 µM [cytotoxic, partial curve, poor fit]",–
Cc1ccc(/C=N/NC(=O)CSc2nnc(-c3ccc(Cl)cc3)n2-c2ccc(Cl)cc2)o1,"inconclusive: 29.1 µM [cytotoxic, single point]",–
COc1ccc(NCc2cccn2-c2nnc(N3CCOCC3)s2)cc1OC,inactive,–
Cc1cccc(NNC(=O)C(=O)NNc2cccc(C)c2)c1,"inconclusive: 11.6 µM [cytotoxic, partial curve]",–
CCOC(=O)c1[nH]ncc1CN1CCN(Cc2ccc(C)cc2)C(CCO)C1 (configuration not stated),inactive,–
O=C(Nc1nc2ccccc2s1)c1cccc(S(=O)(=O)N2CCc3ccccc32)c1,"inconclusive: 20.6 µM [cytotoxic, single point]",–
Cc1cccc(NC2=Nc3ccccc3N3C2=Nc2c(c(C)nn2-c2ccccc2)C3c2ccc(O)c(O)c2)c1 (configuration not stated),"inconclusive: 18.4 µM [cytotoxic, single point]",–
O=C([O-])c1cc(-c2ccccc2)cc(-c2ccccc2)[n+]1CCc1ccc(Cl)cc1,"inconclusive: 25.9 µM [cytotoxic, partial curve, poor fit]",–
O=C(c1cnn2c1NC(c1ccc(Br)cc1)CC2C(F)(F)F)N1CCN(C23CC4CC(CC(C4)C2)C3)CC1 (configuration not stated),"inconclusive: 20.6 µM [cytotoxic, single point]",–
Cc1cccc(CN2C(=O)[C@@H]3Cc4c([nH]c5ccccc45)C(C)(C)N3C2=O)c1,"inconclusive: 20.6 µM [cytotoxic, single point]",–
COc1ccc(/C=N/n2cnc3c([nH]c4ccc(Br)cc43)c2=O)cc1CN1CCOCC1,"inconclusive: 29.1 µM [cytotoxic, single point]",–
CCOC(=O)c1ccccc1NC(=O)N1CCN(Cc2cc(=O)n3nc(-c4ccccc4)sc3n2)CC1,inactive,–
O=C(CSc1nc(-c2ccccc2)c(-c2ccccc2)[nH]1)N1CCN(S(=O)(=O)c2ccccc2)CC1,"inconclusive: 29.1 µM [cytotoxic, single point]",–
COc1ccc(NC(=S)NC2CCCCC2)c(OC)c1,–,inconclusive: -1.86%
Cc1nc2ccccn2c1-c1csc(Nc2cccc(O)c2)n1,"inconclusive: 2.59 µM [cytotoxic, partial curve, poor fit]",–
O=C(NCCc1csc(-c2ccc(C(F)(F)F)cc2)n1)c1ccc(F)c(F)c1,active: 23.1 µM,–
CC(C)C(=O)Nc1cccc(COc2cccc(CN(Cc3ccccc3)C(=O)OC(C)(C)C)c2)c1,"inconclusive: 29.1 µM [cytotoxic, single point]",–
CNC(=O)C1CN(C(=O)c2nn(Cc3ccccc3)c(=O)c3ccccc23)c2ccccc2O1 (configuration not stated),–,inconclusive: 2.59%
